From patent publication US20200181195A1
No constants are given. Whether binding was seen depends on the method and setting. For part of these data: Binding can be weak; no strength is given.

Key:
[1] = biological target: HLA-A*02:01 molecule (HLA-A*02:01 gene product) (human); test: stated in the description; underlying assay is the cell-based flow cytometry of Example 1
[2] = biological target: HLA-A*24:02 molecule (HLA-A*24:02 gene product) (human); test: as above
[3] = biological target: HLA-A*02:01 molecule (HLA-A*02:01 gene product) (human); test: flow cytometry, T2 cells + purified b2m, peptide dilution series, BB7.2 staining
[4] = biological target: HLA-A*24:02 molecule (HLA-A*24:02 gene product) (human); test: flow cytometry, acid-stripped C1R-A24 cells + purified b2m, peptide dilution series, 17A12 staining

binding [3]	Binder	further results
no binding (tested: >-4)	SFFFLSFHI [… (Seq. ID No. 8)]	
no binding (tested: >-3)	TLAFREGTI [… (Seq. ID No. 9)]	

More lines, now with the values behind:

Binder	binding [3]	further results
STGVSFFFL [… (Seq. ID No. 10)]		binding [1]: binds; binding [2]: binds
AFREGTINV [… (Seq. ID No. 4)]	no binding (tested: >-3)	
LQRDISEMF [… (Seq. ID No. 6)]	no binding (tested: >-3)	
HHSDTPTTL [… (Seq. ID No. 7)]	no binding (tested: >-3)	
GQDVTSVPV [… (Seq. ID No. 11)]		binding [4]: no binding (tested: >-3)
FSAQSGAGV [… (Seq. ID No. 12)]		binding [4]: no binding (tested: >-3)
